Source: PMC10371797
No constants are given. Whether binding was seen depends on the method and setting. Binding seen in cells or lysates may run through a third protein. Some entries that bind do so weakly or less than the wild type. Tags and fused reporters may be left off the sequences shown.

Legend:
[1] = target: T1, ZC3H11A(3C>A)-Flag (human) (UniProt O75152); assay: co-IP
T1 sequence: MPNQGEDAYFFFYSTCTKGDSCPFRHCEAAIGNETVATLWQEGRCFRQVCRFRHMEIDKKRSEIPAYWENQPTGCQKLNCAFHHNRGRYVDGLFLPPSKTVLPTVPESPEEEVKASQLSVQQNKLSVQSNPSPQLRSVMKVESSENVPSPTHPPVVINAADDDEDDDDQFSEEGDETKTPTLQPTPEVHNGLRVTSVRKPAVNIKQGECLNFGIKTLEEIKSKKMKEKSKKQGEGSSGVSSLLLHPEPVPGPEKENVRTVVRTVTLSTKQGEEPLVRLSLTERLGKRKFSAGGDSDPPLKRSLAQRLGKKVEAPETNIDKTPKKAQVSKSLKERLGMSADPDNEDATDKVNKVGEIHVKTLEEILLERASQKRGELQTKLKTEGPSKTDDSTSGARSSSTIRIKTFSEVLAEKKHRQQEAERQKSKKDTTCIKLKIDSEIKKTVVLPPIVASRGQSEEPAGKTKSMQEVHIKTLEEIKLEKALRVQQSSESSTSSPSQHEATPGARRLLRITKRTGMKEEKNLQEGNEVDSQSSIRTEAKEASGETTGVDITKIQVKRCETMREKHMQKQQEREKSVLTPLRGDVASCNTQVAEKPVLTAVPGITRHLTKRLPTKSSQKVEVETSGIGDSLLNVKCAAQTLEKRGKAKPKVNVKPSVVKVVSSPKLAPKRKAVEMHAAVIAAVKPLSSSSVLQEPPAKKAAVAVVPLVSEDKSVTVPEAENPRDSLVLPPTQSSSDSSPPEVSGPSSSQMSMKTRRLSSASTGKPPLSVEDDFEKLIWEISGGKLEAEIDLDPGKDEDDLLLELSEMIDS

ZC3H11A(wt)-Flag (human) = ZC3H11A(wt)-Flag (human) (UniProt O75152); assay: co-IP

B1: THOC5-HA (protein, UniProt Q13769 1-683)
chain: MSSESSKKRKPKVIRSDGAPAEGKRNRSDTEQEGKYYSEEAEVDLRDPGRDYELYKYTCQELQRLMAEIQDLKSRGGKDVAIEIEERRIQSCVHFMTLKKLNRLAHIRLKKGRDQTHEAKQKVDAYHLQLQNLLYEVMHLQKEITKCLEFKSKHEEIDLVSLEEFYKEAPPDISKAEVTMGDPHQQTLARLDWELEQRKRLAEKYRECLSNKEKILKEIEVKKEYLSSLQPRLNSIMQASLPVQEYLFMPFDQAHKQYETARHLPPPLYVLFVQATAYGQACDKTLSVAIEGSVDEAKALFKPPEDSQDDESDSDAEEEQTTKRRRPTLGVQLDDKRKEMLKRHPLSVMLDLKCKDDSVLHLTFYYLMNLNIMTVKAKVTTAMELITPISAGDLLSPDSVLSCLYPGDHGKKTPNPANQYQFDKVGILTLSDYVLELGHPYLWVQKLGGLHFPKEQPQQTVIADHSLSASHMETTMKLLKTRVQSRLALHKQFASLEHGIVPVTSDCQYLFPAKVVSRLVKWVTVAHEDYMELHFTKDIVDAGLAGDTNLYYMALIERGTAKLQAAVVLNPGYSSIPPVFQLCLNWKGEKTNSNDDNIRAMEGEVNVCYKELCGPWPSHQLLTNQLQRLCVLLDVYLETESHDDSVEGPKEFPQEKMCLRLFRGPSRMKPFKYNHPQGFFSHR
binding [1]: binds
binding (ZC3H11A(wt)-Flag (human)): binds
